# Source: PubChem BioAssay AID1487 (National Center for Advancing Translational Sciences (NCATS), 2009)
# Values joined by “and” are separate entries in the source; they are usually repeats but may differ in a detail not shown here. Equal entries are not always repeated. The list shows a part of the results. The main result of the screen is listed elsewhere. These columns were measured beside it and carry no call. The list favours compounds with an active or inconclusive main result. The note in brackets gives the kind of curve behind each potency; many fits are weak.
# Assay: qHTS Assay for Modulators of Lamin A Splicing
# Conditions: HeLa LMNA splicing GFP/RFP minigene ratio, 48 h
# In short: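 S3 HeLa stable clones carrying a lamin A-EGFP splicing minigene plus DsRed2 were seeded at 600 cells/well in Opti-MEM with 2% FBS, pin-dosed and incubated 48 h at 37°C. Acumen cytometry (488 nm) gave the GFP/RFP total-intensity ratio.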
# [1] = measured here: GFP splicing reporter channel
# [2] = measured here: RFP viability control channel
SMILES,AC50 [1],AC50 [2]
COC(=O)c1cc(NS(=O)(=O)c2cc(Br)cc3c2N(C(C)=O)CC3)cc(C(=O)OC)c1,"1.78 µM [rising, partial curve, poor fit]","1.26 µM [rising, partial curve, poor fit]"
COC(=O)c1ccc(-n2c(C)cc(C(=O)CCl)c2C)cc1,"25.1 µM [falling, single point]","35.5 µM [falling, single point]"
Cc1cc(C(=O)CSc2nnc(-c3ccccc3F)o2)c(C)n1Cc1cccs1,"17.8 µM [rising, partial curve]","15.8 µM [rising, partial curve]"
CCCC(=O)c1ccc(OC(=O)c2c(-c3ccccc3Cl)noc2C)cc1,"0.282 µM [falling, full curve, poor fit]",–
CCOC(=O)c1c(CN2CCOCC2)n(-c2ccccc2)c2cc(Br)c(O)cc12,–,"12.6 µM [falling, partial curve]"
N#Cc1c(NC(=O)CS(=O)(=O)c2ccc(Cl)cc2)sc2c1CCCCC2,–,"31.6 µM [rising, single point]"
CC1CN(C(=O)c2cccs2)CCN1C(=O)c1cccs1 (centres undefined),–,"35.5 µM [rising, single point]"
Cc1nc2ccc(S(=O)(=O)N(C)CC(=O)N3CCc4ccccc43)cc2s1,"25.1 µM [rising, single point]","25.1 µM [rising, partial curve]"
CCN(CC)S(=O)(=O)c1cccc(-c2nc3n(n2)Cc2ccccc2-3)c1,–,"11.2 µM [rising, partial curve, poor fit]"
C[C@H]1Cc2c(-c3ccccc3)nc3c(c2CO1)CN(C(=O)NCCc1c[nH]c2ccccc12)CC3,"0.562 µM [rising, partial curve, poor fit]",–
O=C(CSc1ccc2nnc(CCNS(=O)(=O)c3ccccc3)n2n1)Nc1nc2ccccc2s1,–,"15.8 µM [rising, single point]"
CCCCCOC(=O)C1[C@H]2C(=O)N(CCCOC)C[C@]23C=C[C@H]1O3 (some centres undefined),–,"0.02 µM [falling, full curve, poor fit]"
O=C(NNC(=S)Nc1ccccc1C(F)(F)F)c1ccc(Br)o1,"0.316 µM [falling, full curve, poor fit]","0.158 µM [falling, full curve, poor fit]"
COc1cccc(NC(=O)c2ccc3nc(Cc4ccccc4)oc3c2)c1,"11.2 µM [rising, single point]",–
CC(C)(CO)NCc1cc(Br)ccc1OCc1ccccc1,–,"20 µM [rising, single point]"
CCc1ccc(-n2c(SCc3cccc(F)c3)nc3[nH]ncc3c2=O)cc1,"5.62 µM [rising, single point]",–
S=C(NCc1ccco1)N1CCN(C/C=C/c2ccccc2)CC1,"17.8 µM [falling, partial curve]",–

# Part of the list above in order of length of the SMILES, largest number first.
SMILES,AC50 [1],AC50 [2]
O=C(CSc1ccc2nnc(CCNS(=O)(=O)c3ccccc3)n2n1)Nc1nc2ccccc2s1,–,"15.8 µM [rising, single point]"
Cc1nc2ccc(S(=O)(=O)N(C)CC(=O)N3CCc4ccccc43)cc2s1,"25.1 µM [rising, single point]","25.1 µM [rising, partial curve]"
N#Cc1c(NC(=O)CS(=O)(=O)c2ccc(Cl)cc2)sc2c1CCCCC2,–,"31.6 µM [rising, single point]"

# Next part

SMILES,AC50 [1],AC50 [2]
COc1ccc(N(C)C(=O)c2cc(S(=O)(=O)N3CCc4ccccc43)cn2C)c(OC)c1,"12.6 µM [falling, partial curve]","35.5 µM [falling, partial curve]"
O=C(CSc1nc2cc(S(=O)(=O)N3CCOCC3)ccc2o1)NC1CCCc2ccccc21 (centres undefined),"15.8 µM [rising, partial curve, poor fit]","15.8 µM [rising, partial curve]"
CN(Cc1ccon1)C(=O)CCc1nnc(Cc2ccc(-c3ccccc3)cc2)o1,"20 µM [falling, partial curve, poor fit]",–
O=C(CSc1nc2ccccc2[nH]1)N=Nc1c(O)[nH]c2ccccc12,–,"12.6 µM [rising, partial curve, poor fit]"
Cc1ccc(S(=O)(=O)Nc2ccc(N(C)C)cc2)cc1,–,"0.00316 µM [rising, full curve, poor fit]"
CCN(CC)S(=O)(=O)c1cccc(C(=O)N[C@H](C(=O)NCc2ccc(Cl)cc2)C(C)C)c1,–,"11.2 µM [rising, partial curve]"
COc1cc(CNCCc2c[nH]c3ccccc23)cc(Cl)c1OCC(N)=O,–,"2.82 µM [falling, full curve, poor fit]"
Cc1onc(-c2ccccc2)c1C(=O)N1CC(C)OC(C)C1 (centres undefined),"5.62 µM [falling, full curve, poor fit]","4.47 µM [falling, full curve, poor fit]"
COc1ccc(C(=O)N2CCN(c3nc4ccccc4o3)CC2)cc1OC,–,"14.1 µM [rising, single point]"
Cc1onc(C(=O)NCc2cccs2)c1[N+](=O)[O-],"5.62 µM [rising, full curve]",–
COc1ccc(C2Nc3ccccc3C(=O)N2c2ccccc2)cc1COc1ccccn1 (centres undefined),"0.1 µM [rising, full curve]",–
COc1ccc(Cl)cc1C(=O)NCCc1ccc(S(=O)(=O)NC(=O)NC2CCCCC2)cc1,"10 µM [falling, partial curve, poor fit] and 5.62 µM [falling, partial curve, poor fit] and 282 nM [falling, full curve, poor fit]","11.2 µM [falling, partial curve, poor fit]"
c1ccc(-c2nnc(-c3ccccn3)nc2NC2CCCCC2)cc1,–,"6.31 µM [rising, full curve]"
Nc1nc(=O)n([C@@H]2CS[C@H](CO)O2)cc1F,"0.0398 µM [falling, partial curve, poor fit]","17.8 µM [rising, partial curve, poor fit]"
O=C(CN1CCN(S(=O)(=O)c2ccc(Br)cc2)CC1)N/N=C/c1cc([N+](=O)[O-])ccc1Cl,–,"22.4 µM [rising, partial curve, poor fit]"
CCOC(=O)c1cnn(-c2cc(Oc3ccccc3C)ncn2)c1N,–,"35.5 µM [rising, single point]"
CCOC(=O)N1CCN(C2OC(=O)c3ccccc32)CC1 (centres undefined),"22.4 µM [falling, partial curve, poor fit]",–
